No constants are given. Whether binding was seen depends on the method and setting. Some results given as binding are weak or reduced against the parent protein; the word gives no strength.
Biological target: human EP4 with V5 and 6xHIS tags at the C-terminus, on the CHO cell line stably expressing human EP4 (human) (UniProt P35408)
Experiment: flow cytometry, 293FT culture supernatant on the CHO cell line stably expressing human EP4, PE-labeled anti-human IgG

Sequences of proteins named here, by UniProt entry; tags and fusion partners are left off. A change or cut given only in a name is not applied to a line headed by its entry.
UniProt P35408: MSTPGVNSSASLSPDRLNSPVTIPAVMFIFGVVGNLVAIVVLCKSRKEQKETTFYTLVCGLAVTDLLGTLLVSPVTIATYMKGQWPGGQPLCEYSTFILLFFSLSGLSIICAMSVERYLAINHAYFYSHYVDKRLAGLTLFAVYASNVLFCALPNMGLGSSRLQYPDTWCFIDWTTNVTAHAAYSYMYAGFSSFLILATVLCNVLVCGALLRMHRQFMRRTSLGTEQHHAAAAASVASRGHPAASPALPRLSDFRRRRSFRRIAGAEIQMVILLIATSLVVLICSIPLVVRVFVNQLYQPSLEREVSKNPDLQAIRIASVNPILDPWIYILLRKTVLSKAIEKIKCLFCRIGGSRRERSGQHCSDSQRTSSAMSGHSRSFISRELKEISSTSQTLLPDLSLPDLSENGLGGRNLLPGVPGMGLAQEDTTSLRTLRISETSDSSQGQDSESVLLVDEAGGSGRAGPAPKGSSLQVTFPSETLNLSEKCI

binding: binds
B1: human chimeric antibody NBG016-mAb14 (antibody, V domains shown)
VH: EIQLQQPGPELVKPGASVKVSCKASGFPFSTYNIYWVIQSHGKRLEWIGYIDPYNGGTSYNQKFRGKATLTVDKSSSTAYMHLNRLTSEDSAVYYCARRWYTYDGDWFAYWGQGTLVTVSA
VL: DIKMTQSPSSMYVSLGERVTITCKASQDINRYLSWFQQKPGKSPKTLIYRANRLLDGVPSRFSGSGSGLDYSLTISSLEYEDMGNYYCLQYDEFPFTFGSGTKLEIKR
